From publication PMC3157439
Results are given in words; binding and its absence hold for the method and conditions named. Binding calls can cover weak binding; strength is not graded here.

Target: T1, cytoplasmic domain of mouse GPR50 (amino acids 304-592) (mouse) (UniProt O88495)
T1 sequence: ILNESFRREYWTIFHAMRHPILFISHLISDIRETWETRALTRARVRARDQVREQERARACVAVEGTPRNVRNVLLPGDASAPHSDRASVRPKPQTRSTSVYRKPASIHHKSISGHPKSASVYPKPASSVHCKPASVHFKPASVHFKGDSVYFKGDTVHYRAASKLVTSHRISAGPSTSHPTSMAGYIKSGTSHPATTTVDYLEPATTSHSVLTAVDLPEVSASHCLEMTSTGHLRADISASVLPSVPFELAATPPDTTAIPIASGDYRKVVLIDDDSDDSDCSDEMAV
Test: two-hybrid; library screen in yeast AH109 (Gal4 system); bait pGBKT7-cGPR50, mouse testis cDNA library in pACT2; growth on Trp-Leu-His-Ade- plates and beta-galactosidase (X-gal) colour

| binding | Substance |
| --- | --- |
| binds | TBC1domain member 19 (mouse) |
| binds | Syndecan binding protein 8 (mouse) |
